Measurements reported in PubChem BioAssay AID493246 (Drosophila RNAi Screening Center, 2011).
Screen: 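Genes fly cells need to grow and stay alive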 (primary screen). Cells: Drosophila Kc and S2R+ cells. Reagent: long dsRNA against Drosophila genes. Measurement: 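Cell number per well after knock-down, printed as raw plate values; calls were based on per-plate z-scores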. Reading the numbers: Kc cell number and S2R+ cell number: higher = more cells remaining. Hit rule: 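Active when the per-plate z-score of cell number is 3 or more in the direction of fewer cells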.
The deposit covers about 21,000 reagents; below is an unselected part of those that have a named target and a result. In the full data, 429 (2%) got an active call. 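Values are raw and not normalised between plates; calls rest on per-plate z-scores that were not deposited.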 Unmarked entries are inactive. The numbers tell different reagents against one gene apart. A plus sign joins genes that one reagent is predicted to hit. The record does not give: the amount of reagent, the time to read-out.

What is on record for Obp73a?
Kc cell number, rep 1: 1.34e6; Kc cell number, rep 2: 1.50e6; S2R+ cell number, rep 1: 1.33e6; S2R+ cell number, rep 2: 1.43e6

What is on record for nxf4?
Kc cell number, rep 1: 1.58e6; Kc cell number, rep 2: 1.74e6; S2R+ cell number, rep 1: 1.24e6; S2R+ cell number, rep 2: 1.30e6

For RhoGEF3 #1, how do the results read?
Kc cell number, rep 1: 1.46e6; Kc cell number, rep 2: 1.30e6; S2R+ cell number, rep 1: 1.04e6; S2R+ cell number, rep 2: 1.24e6

With RhoGEF3 #2, what was measured?
Kc cell number, rep 1: 1.31e6; Kc cell number, rep 2: 1.29e6; S2R+ cell number, rep 1: 1.07e6; S2R+ cell number, rep 2: 1.25e6

For Teh1, what does the deposit list?
Kc cell number, rep 1: 1.61e6; Kc cell number, rep 2: 1.68e6; S2R+ cell number, rep 1: 1.33e6; S2R+ cell number, rep 2: 1.39e6

Which result is listed for CG17321?
Kc cell number, rep 1: 1.55e6; Kc cell number, rep 2: 1.65e6; S2R+ cell number, rep 1: 1.36e6; S2R+ cell number, rep 2: 3.13e5

Which result is listed for CG34022 (retired record)?
Kc cell number, rep 1: 1.43e6; Kc cell number, rep 2: 1.39e6; S2R+ cell number, rep 1: 9.89e5; S2R+ cell number, rep 2: 1.11e6

For CG13160, how do the results read?
Kc cell number, rep 1: 1.72e6; Kc cell number, rep 2: 1.84e6; S2R+ cell number, rep 1: 1.48e6; S2R+ cell number, rep 2: 1.61e6

What is on record for GNBP1?
Kc cell number, rep 1: 1.31e6; Kc cell number, rep 2: 1.40e6; S2R+ cell number, rep 1: 1.35e6; S2R+ cell number, rep 2: 1.42e6

What did the screen give for toy?
Kc cell number, rep 1: 5.68e5; S2R+ cell number, rep 1: 8.94e5

With CG13947, what does the deposit list?
Kc cell number, rep 1: 1.72e6; Kc cell number, rep 2: 1.77e6; S2R+ cell number, rep 1: 1.04e6; S2R+ cell number, rep 2: 1.22e6

With CG13994, what was measured?
Kc cell number, rep 1: 1.60e6; Kc cell number, rep 2: 1.50e6; S2R+ cell number, rep 1: 1.12e6; S2R+ cell number, rep 2: 1.34e6

What is on record for DUBAI + Tmem18?
Kc cell number, rep 1: 1.50e6; Kc cell number, rep 2: 1.46e6; S2R+ cell number, rep 1: 9.79e5; S2R+ cell number, rep 2: 1.12e6

With Nph, what does the deposit list?
Kc cell number, rep 1: 1.55e6; Kc cell number, rep 2: 1.60e6; S2R+ cell number, rep 1: 1.07e6; S2R+ cell number, rep 2: 1.21e6

What is on record for CG9988?
Kc cell number, rep 1: 1.58e6; Kc cell number, rep 2: 1.57e6; S2R+ cell number, rep 1: 1.06e6; S2R+ cell number, rep 2: 1.14e6

What is on record for HPS1?
Kc cell number, rep 1: 1.74e6; Kc cell number, rep 2: 1.70e6; S2R+ cell number, rep 1: 1.40e6; S2R+ cell number, rep 2: 1.47e6

For Plzf, what does the deposit list?
Kc cell number, rep 1: 1.37e6; Kc cell number, rep 2: 1.41e6; S2R+ cell number, rep 1: 1.15e6; S2R+ cell number, rep 2: 1.23e6

With CG11655, how do the results read?
Kc cell number, rep 1: 1.48e6; Kc cell number, rep 2: 1.51e6; S2R+ cell number, rep 1: 8.67e5; S2R+ cell number, rep 2: 1.01e6

Which result is listed for CG12691?
Kc cell number, rep 1: 1.60e6; Kc cell number, rep 2: 1.58e6; S2R+ cell number, rep 1: 1.01e6; S2R+ cell number, rep 2: 1.18e6

With CG31088, what was measured?
Kc cell number, rep 1: 1.41e6; Kc cell number, rep 2: 1.56e6; S2R+ cell number, rep 1: 1.08e6; S2R+ cell number, rep 2: 1.14e6

For CG15127 #1, what was measured?
Kc cell number, rep 1: 6.39e5; S2R+ cell number, rep 1: 6.83e5

For CG15127 #2, what was measured?
Kc cell number, rep 1: 1.56e6; Kc cell number, rep 2: 1.60e6; S2R+ cell number, rep 1: 1.12e6; S2R+ cell number, rep 2: 1.27e6
